Assay results taken from PubChem BioAssay AID248 (DTP/NCI, 2004).
The list does not hold the whole screen: it covers a few groups of compounds. Not every dose and run of a compound is shown. T/C gives the treated animals as a percentage of the vehicle group. Where survival is the endpoint, the PubChem record calls one and a half times the control and up active, and a quarter to a half above the control has no call in these data; cut-offs in other NCI protocols can differ. Some entries show no survivor count and are marked so; the dose need not have been tolerated. Schedules are NCI's codes, read here as Q, the interval in days (D) or hours (H), X, the number of doses. Some entries were tested several times; their values stand side by side, smallest first. Some schedules carry Z or #; the key to these is not given.

Test system: L1210 leukemia ip in BDF1 mice, survival T/C
Test: NCI In Vivo Anticancer Drug Screen. Data for tumor model L1210 Leukemia (intraperitoneal) in B6D2F1 (BDF1) mice
Settings: higher T/C = longer survival

NC(Cc1cccc(N(CCCl)CCCl)c1)C(=O)O (stereo unspecified)
T/C (T/C endpoint: mean survival time, dose: 4.0 mg/kg/injection, schedule: Q01DX001 (sc), vehicle: carboxymethylcellulose (CMC)): 112 % of control [survivor count not shown] | T/C (T/C endpoint: mean survival time, dose: 4.0 mg/kg/injection, schedule: Q01DX009 (ip), vehicle: carboxymethylcellulose (CMC)): 128 % of control [survivor count not shown] | T/C (T/C endpoint: mean survival time, dose: 4.0 mg/kg/injection, schedule: Q01DX009 (oral), vehicle: carboxymethylcellulose (CMC)): 137 % of control [survivor count not shown] | T/C (T/C endpoint: mean survival time, dose: 4.0 mg/kg/injection, schedule: Q01DX009 (sc), vehicle: carboxymethylcellulose (CMC)): 145 % of control [survivor count not shown] | T/C (T/C endpoint: mean survival time, dose: 4.0 mg/kg/injection, schedule: Q01DX Z (im), vehicle: carboxymethylcellulose (CMC)): 154 % of control [survivor count not shown] | T/C (T/C endpoint: mean survival time, dose: 4.0 mg/kg/injection, schedule: Q01DX Z (ip), vehicle: carboxymethylcellulose (CMC)): 168 % of control [survivor count not shown] | T/C (T/C endpoint: mean survival time, dose: 4.0 mg/kg/injection, schedule: Q01DX Z (oral), vehicle: carboxymethylcellulose (CMC)): 143 % of control [survivor count not shown] | T/C (T/C endpoint: mean survival time, dose: 4.0 mg/kg/injection, schedule: Q01DX Z (sc), vehicle: carboxymethylcellulose (CMC)): 160 % of control [survivor count not shown] | T/C (T/C endpoint: mean survival time, dose: 4.0 mg/kg/injection, schedule: Q## X002 (ip), vehicle: carboxymethylcellulose (CMC)): 146 [survivor count not shown] and 167 % of control [survivor count not shown] | T/C (T/C endpoint: mean survival time, dose: 4.0 mg/kg/injection, schedule: Q## X002 (oral), vehicle: carboxymethylcellulose (CMC)): 142 % of control [survivor count not shown] | T/C (T/C endpoint: mean survival time, dose: 4.0 mg/kg/injection, schedule: Q## X003 (ip), vehicle: carboxymethylcellulose (CMC)): 160 [survivor count not shown] and 164 % of control [survivor count not shown] | T/C (T/C endpoint: mean survival time, dose: 4.0 mg/kg/injection, schedule: Q## X008 (ip), vehicle: carboxymethylcellulose (CMC)): 122 % of control [survivor count not shown] | T/C (T/C endpoint: mean survival time, dose: 4.0 mg/kg/injection, schedule: Q## X016 (ip), vehicle: carboxymethylcellulose (CMC)): 114 % of control [survivor count not shown] | T/C (T/C endpoint: mean survival time, dose: 4.0 mg/kg/injection, schedule: Q## X024 (ip), vehicle: carboxymethylcellulose (CMC)): 132 % of control [survivor count not shown] | T/C (T/C endpoint: mean survival time, dose: 4.4 mg/kg/injection, schedule: Q01DX001 (ip), vehicle: carboxymethylcellulose (CMC)): 134 % of control [survivor count not shown] | T/C (T/C endpoint: mean survival time, dose: 4.44 mg/kg/injection, schedule: Q01DX009 (ip), vehicle: other): 140 % of control [survivor count not shown] | T/C (T/C endpoint: mean survival time, dose: 5.0 mg/kg/injection, schedule: Q01DX001 (ip), vehicle: saline): 111 % of control [survivor count not shown] | T/C (T/C endpoint: mean survival time, dose: 5.0 mg/kg/injection, schedule: Q01DX009 (ip), vehicle: saline): 148 [survivor count not shown] and 179 % of control [survivor count not shown] | T/C (T/C endpoint: mean survival time, dose: 5.0 mg/kg/injection, schedule: Q01DX010 (ip), vehicle: saline): 86 [survivor count not shown] and 87 % of control [survivor count not shown] | T/C (T/C endpoint: mean survival time, dose: 6.0 mg/kg/injection, schedule: Q01DX Z (oral), vehicle: carboxymethylcellulose (CMC)): 130 [survivor count not shown] and 137 % of control [survivor count not shown] | T/C (T/C endpoint: mean survival time, dose: 6.6 mg/kg/injection, schedule: Q01DX001 (ip), vehicle: carboxymethylcellulose (CMC)): 143 % of control [survivor count not shown] | T/C (T/C endpoint: mean survival time, dose: 8.0 mg/kg/injection, schedule: Q01DX001 (ip), vehicle: carboxymethylcellulose (CMC)): 113 [survivor count not shown] and 170 % of control [survivor count not shown] | T/C (T/C endpoint: mean survival time, dose: 8.0 mg/kg/injection, schedule: Q01DX001 (oral), vehicle: carboxymethylcellulose (CMC)): 123 % of control [survivor count not shown] | T/C (T/C endpoint: mean survival time, dose: 8.0 mg/kg/injection, schedule: Q01DX001 (sc), vehicle: carboxymethylcellulose (CMC)): 119 % of control [survivor count not shown] | T/C (T/C endpoint: mean survival time, dose: 8.0 mg/kg/injection, schedule: Q01DX009 (oral), vehicle: carboxymethylcellulose (CMC)): 110 % of control [survivor count not shown] | T/C (T/C endpoint: mean survival time, dose: 8.0 mg/kg/injection, schedule: Q01DX009 (sc), vehicle: carboxymethylcellulose (CMC)): 97 % of control [survivor count not shown] | T/C (T/C endpoint: mean survival time, dose: 8.0 mg/kg/injection, schedule: Q01DX Z (im), vehicle: carboxymethylcellulose (CMC)): 100 [survivor count not shown] and 134 % of control [survivor count not shown] | T/C (T/C endpoint: mean survival time, dose: 8.0 mg/kg/injection, schedule: Q01DX Z (ip), vehicle: carboxymethylcellulose (CMC)): 101 % of control [survivor count not shown] | T/C (T/C endpoint: mean survival time, dose: 8.0 mg/kg/injection, schedule: Q01DX Z (sc), vehicle: carboxymethylcellulose (CMC)): 95 [survivor count not shown] and 112 % of control [survivor count not shown] | T/C (T/C endpoint: mean survival time, dose: 8.0 mg/kg/injection, schedule: Q## X002 (ip), vehicle: carboxymethylcellulose (CMC)): 124 [survivor count not shown] and 184 % of control [survivor count not shown] | T/C (T/C endpoint: mean survival time, dose: 8.0 mg/kg/injection, schedule: Q## X002 (oral), vehicle: carboxymethylcellulose (CMC)): 139 % of control [survivor count not shown] | T/C (T/C endpoint: mean survival time, dose: 8.0 mg/kg/injection, schedule: Q## X003 (ip), vehicle: carboxymethylcellulose (CMC)): 140 [survivor count not shown] and 180 % of control [survivor count not shown] | T/C (T/C endpoint: mean survival time, dose: 8.0 mg/kg/injection, schedule: Q## X008 (ip), vehicle: carboxymethylcellulose (CMC)): 158 % of control [survivor count not shown] | T/C (T/C endpoint: mean survival time, dose: 8.0 mg/kg/injection, schedule: Q## X016 (ip), vehicle: carboxymethylcellulose (CMC)): 157 % of control [survivor count not shown] | T/C (T/C endpoint: mean survival time, dose: 8.0 mg/kg/injection, schedule: Q## X024 (ip), vehicle: carboxymethylcellulose (CMC)): 151 % of control [survivor count not shown] | T/C (T/C endpoint: mean survival time, dose: 8.88 mg/kg/injection, schedule: Q01DX001 (ip), vehicle: saline): 170 % of control [survivor count not shown] | T/C (T/C endpoint: mean survival time, dose: 10.0 mg/kg/injection, schedule: Q01DX001 (ip), vehicle: carboxymethylcellulose (CMC)): 135 [survivor count not shown] and 163 % of control [survivor count not shown] | T/C (T/C endpoint: mean survival time, dose: 10.0 mg/kg/injection, schedule: Q01DX001 (ip), vehicle: saline): 114 % of control [survivor count not shown] | T/C (T/C endpoint: mean survival time, dose: 10.0 mg/kg/injection, schedule: Q01DX009 (ip), vehicle: saline): 90 % of control [survivor count not shown] | T/C (T/C endpoint: mean survival time, dose: 12.0 mg/kg/injection, schedule: Q01DX Z (oral), vehicle: carboxymethylcellulose (CMC)): 94 % of control [survivor count not shown] | T/C (T/C endpoint: mean survival time, dose: 12.0 mg/kg/injection, schedule: Q01DX Z (sc), vehicle: carboxymethylcellulose (CMC)): 88 % of control [survivor count not shown] | T/C (T/C endpoint: mean survival time, dose: 16.0 mg/kg/injection, schedule: Q01DX001 (ip), vehicle: carboxymethylcellulose (CMC)): 93 % of control [survivor count not shown] | T/C (T/C endpoint: mean survival time, dose: 16.0 mg/kg/injection, schedule: Q01DX001 (oral), vehicle: carboxymethylcellulose (CMC)): 128 % of control [survivor count not shown] | T/C (T/C endpoint: mean survival time, dose: 16.0 mg/kg/injection, schedule: Q01DX001 (sc), vehicle: carboxymethylcellulose (CMC)): 137 % of control [survivor count not shown] | T/C (T/C endpoint: mean survival time, dose: 16.0 mg/kg/injection, schedule: Q## X002 (ip), vehicle: carboxymethylcellulose (CMC)): 225 % of control [survivor count not shown] | T/C (T/C endpoint: mean survival time, dose: 16.0 mg/kg/injection, schedule: Q## X002 (oral), vehicle: carboxymethylcellulose (CMC)): 101 % of control [survivor count not shown] | T/C (T/C endpoint: mean survival time, dose: 16.0 mg/kg/injection, schedule: Q## X003 (ip), vehicle: carboxymethylcellulose (CMC)): 129 % of control [survivor count not shown] | T/C (T/C endpoint: mean survival time, dose: 16.0 mg/kg/injection, schedule: Q## X024 (ip), vehicle: carboxymethylcellulose (CMC)): 93 % of control [survivor count not shown] | T/C (T/C endpoint: mean survival time, dose: 20.0 mg/kg/injection, schedule: Q01DX001 (ip), vehicle: carboxymethylcellulose (CMC)): 146 % of control [survivor count not shown] | T/C (T/C endpoint: mean survival time, dose: 20.0 mg/kg/injection, schedule: Q01DX001 (ip), vehicle: saline): 156 % of control [survivor count not shown] | T/C (T/C endpoint: mean survival time, dose: 32.0 mg/kg/injection, schedule: Q01DX001 (oral), vehicle: carboxymethylcellulose (CMC)): 95 % of control [survivor count not shown] | T/C (T/C endpoint: mean survival time, dose: 32.0 mg/kg/injection, schedule: Q01DX001 (sc), vehicle: carboxymethylcellulose (CMC)): 114 % of control [survivor count not shown] | T/C (T/C endpoint: mean survival time, dose: 40.0 mg/kg/injection, schedule: Q01DX001 (ip), vehicle: carboxymethylcellulose (CMC)): 108 % of control [survivor count not shown] | T/C (T/C endpoint: mean survival time, dose: 80.0 mg/kg/injection, schedule: Q01DX001 (ip), vehicle: carboxymethylcellulose (CMC)): 108 [survivor count not shown] and 111 % of control [survivor count not shown] | T/C (T/C endpoint: mean survival time, dose: 120.0 mg/kg/injection, schedule: Q01DX001 (ip), vehicle: carboxymethylcellulose (CMC)): 114 % of control [survivor count not shown] | T/C (T/C endpoint: mean survival time, dose: 180.0 mg/kg/injection, schedule: Q01DX001 (ip), vehicle: carboxymethylcellulose (CMC)): 129 % of control [survivor count not shown] | T/C (T/C endpoint: mean survival time, dose: 270.0 mg/kg/injection, schedule: Q01DX001 (ip), vehicle: carboxymethylcellulose (CMC)): 100 [survivor count not shown] and 112 % of control [survivor count not shown] | T/C (T/C endpoint: mean survival time, dose: 400.0 mg/kg/injection, schedule: Q01DX001 (ip), vehicle: carboxymethylcellulose (CMC)): 107 % of control [survivor count not shown] | T/C (T/C endpoint: median survival time, dose: 1.25 mg/kg/injection, schedule: Q01DX009 (ip), vehicle: saline): 160 [survivor count not shown] and 193 % of control [survivor count not shown] | T/C (T/C endpoint: median survival time, dose: 2.5 mg/kg/injection, schedule: Q01DX009 (ip), vehicle: saline): 120 [survivor count not shown] and 186 % of control [survivor count not shown] | T/C (T/C endpoint: median survival time, dose: 5.0 mg/kg/injection, schedule: Q01DX009 (ip), vehicle: saline): 100 % of control [survivor count not shown]
